Laboratory results as given in PubChem BioAssay AID743255 (National Center for Advancing Translational Sciences (NCATS), 2014).
In all, about 390,000 compounds went through this assay and about 910 (0.23%) were called active. Inconclusive means that the source gave no clear call. Such entries were picked first, then a sample of the others. The call rests on the fitted dose curve; in most records, active means well fitted inhibition curve with a large enough effect; inconclusive means small, poorly fitted or top-dose-only effect; inactive means no such curve, though single readings can be large or run the other way. Where the call is inconclusive, the potency comes from a doubtful curve fit.
Further: nearly all actives have a fitted effect of over 60% in size.
On the % scale 0 is the no-effect control and ±100 the full control effect; potency means the concentration at half of the fitted maximal effect.

Amino acid sequences for entries named in this document (tags omitted). A change or cut given only in a name is not applied to a line headed by its entry.
UniProt O94782: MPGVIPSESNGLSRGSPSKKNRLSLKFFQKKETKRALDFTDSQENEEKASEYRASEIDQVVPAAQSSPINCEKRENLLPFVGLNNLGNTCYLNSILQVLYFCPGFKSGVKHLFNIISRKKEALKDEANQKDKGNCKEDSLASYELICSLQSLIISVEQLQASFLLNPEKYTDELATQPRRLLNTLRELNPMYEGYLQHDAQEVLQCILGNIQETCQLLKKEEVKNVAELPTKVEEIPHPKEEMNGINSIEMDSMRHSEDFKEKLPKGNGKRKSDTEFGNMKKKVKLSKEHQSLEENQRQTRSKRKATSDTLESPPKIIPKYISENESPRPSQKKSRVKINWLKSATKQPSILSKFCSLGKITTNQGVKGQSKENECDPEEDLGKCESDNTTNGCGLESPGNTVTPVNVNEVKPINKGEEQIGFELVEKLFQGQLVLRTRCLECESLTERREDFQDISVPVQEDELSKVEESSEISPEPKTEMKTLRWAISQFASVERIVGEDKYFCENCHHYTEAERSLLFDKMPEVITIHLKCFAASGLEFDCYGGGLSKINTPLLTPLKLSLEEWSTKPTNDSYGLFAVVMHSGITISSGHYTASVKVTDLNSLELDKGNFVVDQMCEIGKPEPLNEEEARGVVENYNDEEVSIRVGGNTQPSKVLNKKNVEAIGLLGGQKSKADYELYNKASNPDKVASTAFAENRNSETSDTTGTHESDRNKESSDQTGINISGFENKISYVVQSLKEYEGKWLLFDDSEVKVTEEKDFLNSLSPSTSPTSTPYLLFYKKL

The compounds below were run against Ubiquitin carboxyl-terminal hydrolase 1 (Homo sapiens) (UniProt O94782) (assay: Inhibitors of USP1/UAF1: Primary Screen). Conditions: recombinant USP1/UAF1, Ub-Rhodamine cleavage fluorescence; activity change, negative = inhibition: at 57.1 µM (top of the series).
Summary of the method: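 USP1/UAF1 complex at 1 nM was preincubated with compound for 15 min at room temperature, then Ub-Rho substrate (150nM final) was added. Fluorescence (480/540 nm) was read kinetically, 6 reads every 60 seconds.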
For `COc1cc2cc(CNc3ccccc3)c(=O)n(CC(=O)Nc3ccc(C)c(Cl)c3)c2cc1OC`, the Potency was inconclusive: 15.8 µM [inhibitor, partial curve].
`CCOc1ccc2c(c1)c(=O)c(S(=O)(=O)c1ccc(F)cc1)cn2CC(=O)Nc1ccccc1C` was tested, and the Potency was inconclusive: 11.2 µM [inhibitor, full curve, poor fit].
With `NC1=NC(c2cccc(Cl)c2)n2c(nc3ccccc32)N1` (stereo not given) the Potency was inconclusive: 0.794 µM [inhibitor, full curve, poor fit].
`COc1cccc(Cl)c1NC(=O)N1CCN(c2cc(C)nc3ccccc23)CC1` was tested, and the “activity change, negative = inhibition” value was inactive: -13.5%.
With `COc1cc(OC)c(C(=O)OC(C)C(=O)NCc2ccc3c(c2)OCO3)cc1OC` (stereo not given) the Potency was inconclusive: 50.1 µM [inhibitor, partial curve, poor fit].
With `COc1c(F)cccc1C1=CC(=O)C[C@H](c2ccc(F)cc2)C1` the Potency was inconclusive: 7.08 µM [inhibitor, full curve, poor fit].
`CN(C)S(=O)(=O)Nc1cc(Cl)cc(Cl)c1` was tested, and the Potency was inconclusive: 35.5 µM [inhibitor, partial curve, poor fit].
For `CCCCC1=CC2=C(c3ccco3)C(=O)C(C)(OC(=O)c3ccc(OC)cc3)C(=O)C2=CN1Cc1ccco1` (stereo not given), the Potency was inconclusive: 31.6 µM [inhibitor, partial curve].
With `CCc1cccc(C)c1NC(=O)COC(=O)Cc1ccccc1` the Potency was inconclusive: 0.251 µM [inhibitor, full curve, poor fit].
`CC(C)NC[C@H](O)c1ccc(O)c(O)c1` was tested, and the Potency was inconclusive: 8.91 µM [inhibitor, partial curve, poor fit].
For `CCOC(=O)c1ccc(-n2c(CCC(=O)O)ccc2-c2ccccc2)cc1`, the Potency was inconclusive: 0.891 µM [inhibitor, full curve].
`Cn1ccsc1=NC(=O)c1ccc(S(C)(=O)=O)c([N+](=O)[O-])c1` was tested, and the “activity change, negative = inhibition” value was inactive: -9.92%.
With `CCOc1ccc(/C=C/c2nc(C#N)c(NC(C)c3ccccc3)o2)cc1` (stereo not given) the “activity change, negative = inhibition” value was inactive: -12.7%.
`Cc1c(Cl)cccc1-n1ncc(C(=O)NC2CCCCC2)c1C1CCN(C(=O)OC(C)(C)C)CC1` was tested, and the Potency was inconclusive: 56.2 µM [inhibitor, partial curve, poor fit].
In the case of `CCOC(=O)c1cccc(NC(=O)c2oc3c(c2C)-c2nn(CC)cc2CC3)c1`, the Potency is reported as inconclusive: 44.7 µM [inhibitor, partial curve].
In the case of `CCOc1ccc(CCNC(=O)CSc2nnnn2-c2ccccc2)cc1OCC`, the “activity change, negative = inhibition” value is reported as inactive: -3.95%.
`Brc1ccc(-c2noc(COc3ccc4ccccc4c3)n2)o1` was tested, and the Potency was inconclusive: 44.7 µM [inhibitor, partial curve, poor fit].
For `CC(C(=O)Nc1ccc(OC(F)(F)F)cc1)N1Cc2ccccc2C1=O` (stereo not given), the Potency was inconclusive: 35.5 µM [inhibitor, partial curve].
For `C[C@H](NC(=O)c1nc[nH]c1C(=O)NCCCCCNC(=O)OC(C)(C)C)C(=O)OC(C)(C)C`, the Potency was inconclusive: 5.01 µM [inhibitor, full curve, poor fit].
In the case of `Cc1ccccc1NC(=O)Cn1c(=O)n(CCc2ccccc2)c(=O)c2ccccc21`, the Potency is reported as inconclusive: 1 µM [inhibitor, full curve, poor fit].
For `C[C@@H](C(=O)Nc1ccc2ccccc2c1)[C@@H]1C[C@@]1(C)[C@@H](NC(=O)c1cnccn1)c1ccccc1`, the Potency was inconclusive: 7.94 µM [inhibitor, partial curve, poor fit].
`COc1ccccc1-c1nc(C(=O)NCC2CCCO2)cc2c1[nH]c1ccccc12` (stereo not given) was tested, and the Potency was inconclusive: 39.8 µM [inhibitor, partial curve].
`CC(C)CC1=NN2C(=N)/C(=C\c3coc4ccccc4c3=O)C(=O)N=C2S1` was tested, and the Potency was active: 28.2 µM.
For `COc1cc(NC(=O)NS(=O)(=O)c2ccc(C)cc2)cc(OC)c1`, the “activity change, negative = inhibition” value was inactive: -19.4%.
In the case of `Cc1ccc(NC(=O)/C=C/c2ccco2)cc1F`, the “activity change, negative = inhibition” value is reported as inactive: -12.4%.
With `CCOC(=O)CC1(NC(=O)C2CCC(=O)N(CCc3ccc(OC)cc3)C2)CCCCC1` (stereo not given) the Potency was inconclusive: 39.8 µM [inhibitor, partial curve].
`O=C(Nc1ccc(N2CCN(c3ccc(F)cc3)CC2)c(C(=O)O)c1)c1cccs1` was tested, and the Potency was inconclusive: 2 µM [inhibitor, full curve].
For `COc1ccc(-c2c(C(F)(F)F)[nH]n3c(=O)cc(-c4ccccc4)nc23)cc1`, the Potency was inconclusive: 1.41 µM [inhibitor, full curve, poor fit].
`O=C(O)c1ccccc1NS(=O)(=O)c1cccc(NS(=O)(=O)c2cc(Br)ccc2Br)c1` was tested, and the Potency was inconclusive: 10 µM [inhibitor, partial curve].
`Cc1cc(C)c(NC(=O)c2oc3c(c2C)-c2[nH]ncc2CC3)c(C)c1` was tested, and the Potency was inconclusive: 0.282 µM [inhibitor, full curve].
`COc1ccc(C)cc1N(C(=O)c1ccccc1)c1nc2ccccc2s1` was tested, and the “activity change, negative = inhibition” value was inactive: -23.8%.
With `COc1cc(/C=C(\C#N)c2ccccn2)cc(OC)c1O` the “activity change, negative = inhibition” value was inactive: -19.9%.
`COC(=O)C=C1CCC2C3CCC4=CC(=O)C(Br)CC4(C)C3C(=O)CC12C` (stereo not given) was tested, and the “activity change, negative = inhibition” value was inactive: -22.1%.
In the case of `NC(=O)CSc1nc(-c2ccccc2)c(-c2ccccc2)o1`, the Potency is reported as inconclusive: 28.2 µM [inhibitor, partial curve].
`FC(F)(F)c1cc(Nc2nc3ccccc3c3nncn23)ccc1Cl` was tested, and the Potency was inconclusive: 28.2 µM [inhibitor, single point].
In the case of `CCC(=O)Nc1ccc(NC(=O)CSc2nc3c(c(=O)n(C)c(=O)n3C)n2CC)cc1`, the Potency is reported as inconclusive: 1.26 µM [inhibitor, partial curve].
With `CC(=O)N1CCOCCOCCOCC1` the Potency was inconclusive: 39.8 µM [inhibitor, single point].
`COc1ccc(/C=N/Nc2cc(C)nc(-n3nc(C)cc3C)n2)c(OC)c1` was tested, and the “activity change, negative = inhibition” value was inactive: -11.7%.
`C=CCOc1cccc(CNn2cn[nH]c2=S)c1` was tested, and the Potency was inconclusive: 2 µM [inhibitor, full curve].
With `O=C(Cn1c(=O)c(CNc2ccccc2)cc2cc3c(cc21)OCCO3)Nc1ccccc1Cl` the Potency was inconclusive: 35.5 µM [inhibitor, partial curve].
With `N#Cc1c(N2CCN(C(=O)c3ccco3)CC2)nc(-c2ccccc2)c2c1CCCC2` the “activity change, negative = inhibition” value was inactive: -25.8%.
`C=CC[C@H]1C=C[C@@H](C(C(=O)OC)C(=O)OC)CN1C(C)=O` was tested, and the Potency was inconclusive: 0.126 µM [inhibitor, full curve, poor fit].
For `CN(C)c1cccc2c1c(NS(=O)(=O)c1cn(C)cn1)nn2C`, the Potency was inconclusive: 35.5 µM [inhibitor, partial curve].
`N#Cc1ccc(NC(=O)COCc2cc(-c3ccco3)on2)cc1` was tested, and the “activity change, negative = inhibition” value was inactive: -15.4%.
For `O=C(c1ccccc1S(=O)(=O)NCc1ccccc1)N1CCCC1`, the Potency was inconclusive: 3.98 µM [inhibitor, partial curve].
In the case of `CC1CCN(C(=O)c2cc3nc(-c4ccccc4)cc(-c4ccccc4)n3n2)CC1`, the “activity change, negative = inhibition” value is reported as inactive: -20.1%.
With `COc1cc(/C=C/C(=O)OCC(=O)NC(=O)NC23CC4CC(CC(C4)C2)C3)ccc1OCC#N` the Potency was inconclusive: 31.6 µM [inhibitor, partial curve, poor fit].
`COc1cc(N)c(Cc2nccc3cc(OC)c(OC)cc23)cc1OC` was tested, and the Potency was inconclusive: 31.6 µM [inhibitor, partial curve, poor fit].
`CC(=O)Nc1ccc(S(=O)(=O)NC(C)C(=O)NC(C)c2ccccc2)cc1` (stereo not given) was tested, and the Potency was inconclusive: 3.16 µM [inhibitor, full curve, poor fit].
With `Cc1ccccc1-c1nc(C(=O)NCC2CCCO2)cc2c1[nH]c1ccccc12` (stereo not given) the Potency was inconclusive: 31.6 µM [inhibitor, partial curve].
For `O=C(COc1ccc2ccccc2c1Br)N1CCCCC1`, the “activity change, negative = inhibition” value was inactive: -8.4%.
For `CC(C)(C)C1CCc2onc(C(=O)Nc3sc4c(c3C#N)CCCC4)c2C1` (stereo not given), the Potency was inconclusive: 0.447 µM [inhibitor, full curve, poor fit].
In the case of `CC(C)c1ccc(CNc2nc(-c3ccco3)nn2S(=O)(=O)c2ccc(F)cc2)cc1`, the Potency is reported as inconclusive: 8.91 µM [inhibitor, partial curve, poor fit].
`Cc1cccc(N2CCN(Cc3cc(=O)oc4cc(C)ccc34)CC2C)c1` (stereo not given) was tested, and the “activity change, negative = inhibition” value was inactive: -18%.
`Cc1cccc(-n2c(-c3ccoc3C)n[nH]c2=S)c1` was tested, and the Potency was inconclusive: 0.251 µM [inhibitor, full curve, poor fit].
With `CC(C)(C)c1cc(C(=O)NCc2cc(F)cc3c2OCOC3)n(Cc2ccccc2)n1` the Potency was inconclusive: 12.6 µM [inhibitor, partial curve].
In the case of `COc1ccc(NC(=O)COC(=O)C(NC(=O)c2ccc(C)cc2)C(C)C)cn1` (stereo not given), the Potency is reported as inconclusive: 50.1 µM [inhibitor, partial curve].
With `COC(=O)C1=CN(Cc2ccc(OC)c(OC)c2)C=C(C(=O)OC)C1c1cccc(F)c1` the “activity change, negative = inhibition” value was inactive: -29.9%.
With `CCOc1ccccc1NC(=O)N1CCC(C(=O)c2ccc(F)cc2)CC1` the “activity change, negative = inhibition” value was inactive: -18.3%.
For `CCCC1N=C2c3ccccc3N=C(SCC(=O)NCCc3ccc(Cl)cc3)N2C1=O` (stereo not given), the Potency was inconclusive: 10 µM [inhibitor, partial curve, poor fit].
For `Cn1nc(C(=O)N2CCN(c3ccccc3F)CC2)c2c1-c1ccccc1S(=O)(=O)C2`, the Potency was inconclusive: 89.1 µM [inhibitor, partial curve, poor fit].
`CC[N+]1=C(C)C(C)(C)c2cc(C)ccc21` was tested, and the Potency was inconclusive: 8.91 µM [inhibitor, partial curve].
`COc1cc(Br)c(C(=O)c2nccc3cc(OC)c(OC)cc23)cc1OC` was tested, and the Potency was active: 10 µM.
With `COC(=O)c1sccc1NC(=O)CC1C(=O)NCCN1C(=O)c1c(F)cccc1Cl` (stereo not given) the “activity change, negative = inhibition” value was inactive: -23%.
For `Cc1ccccc1C(=O)NNC(=O)CN1C(=O)c2ccccc2C1=O`, the Potency was inconclusive: 7.94 µM [inhibitor, partial curve, poor fit].
